The series is described as follows: general procedure: Boc solid-phase peptide synthesis; Benzhydrylamine resin (0.51 mmole N/g, Beckman); symmetrical anhydride by dicyclohexylcarbodiimide. The conditions noted are these: whole synthesis, scale of the general procedure 1.505 g resin, divided in half after Gly.

HELM strings list residues between dots; [ac] is acetyl, [am] amide, other brackets name non-standard units.

PEPTIDE1{Y.[dM].G.F.[Thz].[am]}$$$$V2.0: the difficulty met entry was “isolation of the deletion peptide H-Tyr-D-Met-Gly-Thz-NH2 during partition chromatography”.

These data come from patent US4103005A (Hoffmann-La Roche Inc., priority 1977, dated 1978).
